Measured values from PMC13572491.
No constants are given. Whether binding was seen depends on the method and setting. For some of these results: In cells and extracts the contact can be indirect. Some binding calls cover weakened binding; strength is not graded here. For some of these results: Sequences can lack the tags named with a protein.

Sequences of proteins named here, by UniProt entry; tags and fusion partners are left off.
UniProt A7SLZ2: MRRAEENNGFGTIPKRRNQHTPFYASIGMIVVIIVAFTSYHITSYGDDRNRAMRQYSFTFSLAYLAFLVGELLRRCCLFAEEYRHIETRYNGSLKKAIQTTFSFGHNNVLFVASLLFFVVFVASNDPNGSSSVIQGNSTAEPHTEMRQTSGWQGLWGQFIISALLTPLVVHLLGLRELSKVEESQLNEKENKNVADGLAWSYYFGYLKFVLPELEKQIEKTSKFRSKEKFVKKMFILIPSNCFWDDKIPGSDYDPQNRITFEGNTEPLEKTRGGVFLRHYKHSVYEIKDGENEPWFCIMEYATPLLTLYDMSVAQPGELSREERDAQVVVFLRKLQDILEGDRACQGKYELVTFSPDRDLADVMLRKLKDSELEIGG

Experiments:
[1] = target: T1, HA-MmSTING (STING of Mus musculus), expressed in HEK 293T (Mus musculus) (UniProt Q3TBT3); experiment: co-IP; HA-immunoprecipitation (anti-HA agarose) on whole-cell extracts of HEK 293T transiently co-expressing HA-STING and FADS-FLAG; TENTG-150 buffer, 4 h at 4 °C; HA peptide elution; Western blot
T1 sequence: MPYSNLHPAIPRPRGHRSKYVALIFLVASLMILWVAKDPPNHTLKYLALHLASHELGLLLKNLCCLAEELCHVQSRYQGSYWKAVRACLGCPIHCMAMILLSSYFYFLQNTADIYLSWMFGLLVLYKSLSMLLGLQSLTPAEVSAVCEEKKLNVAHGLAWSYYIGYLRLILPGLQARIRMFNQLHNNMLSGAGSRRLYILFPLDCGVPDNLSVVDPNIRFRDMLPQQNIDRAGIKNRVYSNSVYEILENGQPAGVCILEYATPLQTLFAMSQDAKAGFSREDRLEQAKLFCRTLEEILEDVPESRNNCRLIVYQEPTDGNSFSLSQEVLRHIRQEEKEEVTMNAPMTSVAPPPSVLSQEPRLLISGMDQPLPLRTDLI

[2] = target: T2, HA-DrSTING (STING of Danio rerio), expressed in HEK 293T (Danio rerio) (UniProt E7F4N7); experiment: as above
T2 sequence: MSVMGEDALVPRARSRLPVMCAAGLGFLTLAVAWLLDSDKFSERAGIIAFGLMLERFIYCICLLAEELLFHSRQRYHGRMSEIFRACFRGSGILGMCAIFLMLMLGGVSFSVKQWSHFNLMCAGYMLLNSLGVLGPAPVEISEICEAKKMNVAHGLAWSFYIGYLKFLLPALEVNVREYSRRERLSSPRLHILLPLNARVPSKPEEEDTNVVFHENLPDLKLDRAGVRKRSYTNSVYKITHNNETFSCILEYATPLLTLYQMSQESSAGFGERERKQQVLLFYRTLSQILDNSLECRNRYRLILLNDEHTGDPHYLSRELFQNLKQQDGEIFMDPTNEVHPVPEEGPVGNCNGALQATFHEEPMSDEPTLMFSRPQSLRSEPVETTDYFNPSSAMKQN

[3] = target: HA-NvSTING (STING homolog of Nematostella vectensis), expressed in HEK 293T (Nematostella vectensis) (UniProt A7SLZ2); experiment: as above
[4] = target: T3, HA-MmSTING stably expressed in MEF Sting-/- (MEF^MmSting) (Mus musculus) (UniProt Q3TBT3); experiment: co-IP; HA-immunoprecipitation on whole-cell extracts of MEF Sting-/- stably expressing HA-STING homologs; endogenous FADS2 detected by Western blot; TENTG-150 buffer, HA peptide elution
T3 sequence: T1 sequence

[5] = target: T4, HA-DrSTING stably expressed in MEF Sting-/- (MEF^DrSTING) (Danio rerio) (UniProt E7F4N7); experiment: as above
T4 sequence: T2 sequence

[6] = target: HA-NvSTING stably expressed in MEF Sting-/- (MEF^NvSTING) (Nematostella vectensis) (UniProt A7SLZ2); experiment: as above
[7] = target: T4, HA-DrSTING stably expressed in MEF Sting-/- (MEF^DrSTING) (Danio rerio); experiment: native gel or EMSA; native electrophoresis (NativePAGE 3-12% Bis-Tris, lysis in 25 mM NaCl, 20 mM HEPES pH 7.0, 10% glycerol, 1% DDM) and Western blot of lysates of MEF lines expressing STING homologs, 1 h or 3 h after 2’3’-cGAMP

B1: MmFADS2-FLAG (fatty acid desaturase 2 of Mus musculus) (enzyme, UniProt Q9Z0R9 1-444)
chain: MGKGGNQGEGSTERQAPMPTFRWEEIQKHNLRTDRWLVIDRKVYNVTKWSQRHPGGHRVIGHYSGEDATDAFRAFHLDLDFVGKFLKPLLIGELAPEEPSLDRGKSSQITEDFRALKKTAEDMNLFKTNHLFFFLLLSHIIVMESLAWFILSYFGTGWIPTLVTAFVLATSQAQAGWLQHDYGHLSVYKKSIWNHVVHKFVIGHLKGASANWWNHRHFQHHAKPNIFHKDPDIKSLHVFVLGEWQPLEYGKKKLKYLPYNHQHEYFFLIGPPLLIPMYFQYQIIMTMISRRDWVDLAWAISYYMRFFYTYIPFYGILGALVFLNFIRFLESHWFVWVTQMNHLVMEIDLDHYRDWFSSQLAATCNVEQSFFNDWFSGHLNFQIEHHLFPTMPRHNLHKIAPLVKSLCAKHGIEYQEKPLLRALIDIVSSLKKSGELWLDAYLHK
binding [1]: binds
binding [2]: binds
binding [3]: binds

B2: endogenous MmFADS2 (fatty acid desaturase 2) of mouse embryonic fibroblasts (enzyme, UniProt Q9Z0R9 1-444)
chain: B1 chain
binding [4]: binds
binding [5]: binds
binding [6]: binds

B3: HA-DrSTING stably expressed in MEF Sting-/- (MEF^DrSTING) (protein, UniProt E7F4N7 1-398)
chain: T2 sequence
binding [7]: binds
